Laboratory results as given in publication PMC9537541, “Synthesis and anticancer activity of new benzensulfonamides incorporating s-triazines as cyclic linkers for inhibition of carbonic anhydrase IX” (Scientific Reports, 2022).

System: Breast cancer (MDA-MB-468)
Assay: anti-proliferative activity under hypoxic condition (MTT), MDA-MB-468
Type: cell-based
Settings: Homo sapiens, hypoxic conditions (1%O2, 5% CO2 and 94% N2), mean ± S.D. of three experiments
Procedure: All cells were incubated in hypoxic atmosphere (1% O2, 5% CO2, and 94%N2) and maintained at 37 °C. All procedures to determine compounds cytotoxicity were accomplished using MTT assay as reported,[59],[60].

## CN[C@@H]1C[C@H]2O[C@@](C)([C@@H]1OC)n1c3ccccc3c3c4c(c5c6ccccc6n2c5c31)C(=O)NC4 [Staurosporine, reference compound]
  IC50: 6.07 ± 0.03 µM
